Data source: PubChem BioAssay AID602196 (INSERM, 2012)
This is a random part of about 23,000 reagents tested. 455 of all reagents (2%) were called active. 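Active includes both protection and sensitisation; some change values fall well beyond the stated -50 to +50 range.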 Not stated in the record: the amount of reagent.

Aim: 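Genes whose knock-down alters cisplatin killing of lung cancer cells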
System: human A549 lung cancer cells
Reagent: siRNA pair against human genes
Time to read-out: 48 h transfection before cisplatin; time from cisplatin to read-out not stated
Treatment: cisplatin at a dose killing half of control-siRNA cells; exact dose and duration not given
Measured: 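Cisplatin cell death as a shift from the 50% death seen with control siRNA; siRNAs toxic or growth-blocking alone scored 0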
Direction: two-siRNA summed score (-2 to +2): higher = both siRNAs protect from cisplatin killing; -2 means both sensitise; mean protection from cisplatin (shift in death) and protection from cisplatin (shift in death), siRNA C and protection from cisplatin (shift in death), siRNA D: higher = protection from cisplatin killing
Call rule: 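Each siRNA scores 0 if harmful alone by LDH or WST-1, otherwise +1 if it reduces and -1 if it increases cisplatin killing; a gene is active when both siRNAs agree (sum +2 or -2)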
Meaning of the calls: active = both siRNAs shift cisplatin killing the same way; inactive = no consistent shift, or siRNA harmful alone

| Gene | two-siRNA summed score (-2 to +2) | mean protection from cisplatin (shift in death) (%) | protection from cisplatin (shift in death), siRNA C (%) | protection from cisplatin (shift in death), siRNA D (%) | outcome |
| --- | --- | --- | --- | --- | --- |
| TRMU (GeneID 55687) | 0 | 12.9 | 16.5 | 9.2 | inactive |
| PKMYT1 (GeneID 9088) | -1 | -3.3 | -7.5 | 0.9 | inactive |
| CHI3L1 (GeneID 1116) | 0 | 1.1 | -0.5 | 2.7 | inactive |
| STEAP3 (GeneID 55240) | 0 | 4.9 | 4.3 | 5.6 | inactive |
| CCHCR1 (GeneID 54535) | 0 | -3 | -10.6 | 4.5 | inactive |
| KRT13 (GeneID 3860) | 1 | 8.3 | 19.9 | -3.3 | inactive |
| MTRES1 (GeneID 51250) | 0 | -3 | 2.2 | -8.1 | inactive |
| MMP28 (GeneID 79148) | 0 | -3.1 | -18.9 | 12.6 | inactive |
| IL1RAPL2 (GeneID 26280) | 0 | -3.9 | -8 | 0.2 | inactive |
| PMS2P5 (GeneID 5383) | 0 | -3.2 | -7.6 | 1.2 | inactive |
| MNAT1 (GeneID 4331) | -1 | -13.8 | -8.7 | -19 | inactive |
| NSMCE2 (GeneID 286053) | 0 | 7.9 | 9.1 | 6.6 | inactive |
| LOC440347 | 1 | 19.8 | 28.7 | 10.9 | inactive |
| TBXT (GeneID 6862) | 0 | 3.3 | -1.9 | 8.4 | inactive |
| UBE2S (GeneID 27338) | 0 | -8.2 | -3.6 | -12.7 | inactive |
| SETD7 (GeneID 80854) | 1 | 12.7 | 3.4 | 21.9 | inactive |
| TWNK (GeneID 56652) | 0 | 4.1 | -4.1 | 12.4 | inactive |
| KRTAP19-2 (GeneID 337969) | -1 | -3.5 | -17.9 | 11 | inactive |
| SCRT1 (GeneID 83482) | 0 | -7.9 | -6.6 | -9.3 | inactive |
| SETD9 (GeneID 133383) | 0 | 7.4 | 1.9 | 13 | inactive |
| RTN4 (GeneID 57142) | 0 | 7.2 | 6.3 | 8.2 | inactive |
| WNT9A (GeneID 7483) | 1 | 4.9 | 11.6 | -1.7 | inactive |
| CLBA1 (GeneID 122616) | 0 | -4.7 | -0.8 | -8.6 | inactive |
| OPN3 (GeneID 23596) | 0 | 2.9 | 13.8 | -8.1 | inactive |
| HDAC8 (GeneID 55869) | 0 | -8.7 | -21.6 | 4.2 | inactive |
| CEMIP2 (GeneID 23670) | 0 | 3.4 | 14.1 | -7.3 | inactive |
| SLC12A3 (GeneID 6559) | 0 | -1 | -3.3 | 1.4 | inactive |
| GPR22 (GeneID 2845) | 0 | 9.3 | 15.4 | 3.2 | inactive |
| TIMM50 (GeneID 92609) | 0 | -1.6 | 5 | -8.3 | inactive |
| TRIM55 (GeneID 84675) | 0 | 3.2 | 4.6 | 1.8 | inactive |
| LOC402072 | 0 | -1.4 | 0.5 | -3.3 | inactive |
| HOXA7 (GeneID 3204) | -1 | -16.5 | -22.7 | -10.4 | inactive |
| DRG2 (GeneID 1819) | -1 | -2.9 | 4.4 | -10.2 | inactive |
| GAB2 (GeneID 9846) | 0 | 6.4 | 2.9 | 9.9 | inactive |
| ZKSCAN1 (GeneID 7586) | 1 | 14.4 | 9.6 | 19.3 | inactive |
| LOC440444 | 1 | 9.7 | 20.5 | -1.1 | inactive |
| PDE2A (GeneID 5138) | 0 | -11.6 | -16.2 | -7 | inactive |
| ETF1 (GeneID 2107) | 1 | 21.6 | 34 | 9.2 | inactive |
| CSNK1G2 (GeneID 1455) | -1 | -4.4 | 9.5 | -18.3 | inactive |
| ARFRP1 (GeneID 10139) | 0 | 6.5 | 23.4 | -10.4 | inactive |
| RUFY4 (GeneID 285180) | 1 | 12.2 | 31.7 | -7.3 | inactive |
| SMAD3 (GeneID 4088) | 0 | -9.3 | -14.5 | -4.1 | inactive |
| KANSL1L (GeneID 151050) | 0 | -3 | -4.6 | -1.4 | inactive |
| SPP2 (GeneID 6694) | 0 | 6.4 | 7.7 | 5.1 | inactive |
| WDR33 (GeneID 55339) | 0 | 2.4 | -8.8 | 13.6 | inactive |
| NHP2 (GeneID 55651) | 0 | 3.8 | 1.1 | 6.6 | inactive |
| GRIP2 (GeneID 80852) | 1 | 13.6 | 7.6 | 19.7 | inactive |
| LINC01104 (GeneID 150577) | 0 | 4.7 | 9.3 | 0.2 | inactive |

Targets listed so far whose target name starts with M or m (3):
| Gene | two-siRNA summed score (-2 to +2) | mean protection from cisplatin (shift in death) (%) | protection from cisplatin (shift in death), siRNA C (%) | protection from cisplatin (shift in death), siRNA D (%) | outcome |
| --- | --- | --- | --- | --- | --- |
| MTRES1 (GeneID 51250) | 0 | -3 | 2.2 | -8.1 | inactive |
| MMP28 (GeneID 79148) | 0 | -3.1 | -18.9 | 12.6 | inactive |
| MNAT1 (GeneID 4331) | -1 | -13.8 | -8.7 | -19 | inactive |

The list goes on.
| Gene | two-siRNA summed score (-2 to +2) | mean protection from cisplatin (shift in death) (%) | protection from cisplatin (shift in death), siRNA C (%) | protection from cisplatin (shift in death), siRNA D (%) | outcome |
| --- | --- | --- | --- | --- | --- |
| MCUR1 (GeneID 63933) | 0 | 7.2 | 14 | 0.4 | inactive |
| TUSC1 (GeneID 286319) | 0 | 15.3 | 15.8 | 14.8 | inactive |
| MCHR1 (GeneID 2847) | -1 | -8.4 | 1.5 | -18.3 | inactive |
| CD80 (GeneID 941) | 0 | 3.4 | 3.8 | 2.9 | inactive |
| DLX5 (GeneID 1749) | 0 | -0.1 | -2.2 | 1.9 | inactive |
| COL18A1-AS1 (GeneID 378832) | 0 | 8.2 | 12.1 | 4.3 | inactive |
| RANBP17 (GeneID 64901) | 0 | 7.3 | 8 | 6.6 | inactive |
| ASB3 (GeneID 51130) | 0 | -17.4 | -13.8 | -21.1 | inactive |
| MSRB2 (GeneID 22921) | 1 | 24.7 | 8.9 | 40.6 | inactive |
| CD34 (GeneID 947) | 1 | -8.6 | -36.6 | 19.5 | inactive |
| TIGAR (GeneID 57103) | 0 | -4.1 | -1.6 | -6.5 | inactive |
| TNXB (GeneID 7148) | 0 | 5.7 | 10.2 | 1.3 | inactive |
| UBOX5 (GeneID 22888) | 0 | 8.6 | 17 | 0.1 | inactive |
| CLDN23 (GeneID 137075) | 1 | 11 | 11.3 | 10.7 | inactive |
| LOC391075 | 0 | 9.7 | 2 | 17.3 | inactive |
| SORBS1 (GeneID 10580) | 0 | -10.5 | -1.6 | -19.5 | inactive |
| TM9SF3 (GeneID 56889) | 1 | 9.1 | 14.6 | 3.7 | inactive |
| ALDH7A1 (GeneID 501) | 1 | 27.1 | 31.1 | 23 | inactive |
| PSME2 (GeneID 5721) | 0 | -7.4 | -41.4 | 26.6 | inactive |
| HOXD8 (GeneID 3234) | 1 | 9 | 26.8 | -8.9 | inactive |
| LOC387943 | 0 | -8.2 | -10.3 | -6 | inactive |
| APOL5 (GeneID 80831) | -1 | -4.5 | 3.3 | -12.2 | inactive |
| ZNF516 (GeneID 9658) | 0 | 5.1 | 8.4 | 1.8 | inactive |
| RHCE (GeneID 6006) | 0 | 2.1 | 10.9 | -6.6 | inactive |
| SIPA1 (GeneID 6494) | 0 | -11.3 | -11.2 | -11.3 | inactive |
